# Several values for one entry are separate records, joined by “and”; a condition that tells them apart may be missing. Equal entries are not always repeated. Where two headings read alike, the source gives them in different places.
# Experiments:
# C. albicans = experiment: MIC/MBC of CPC or delmopinol alone; assay type: cell-based; conditions: Candida albicans
# Protocol: (§1) The final mixture was then sterilized by filtration using a […] PES filter (Nalgene, 169-0045).
# (§2) Bacterial preparations were prepared using freshly grown cultures on solid media. Several loop-fulls of culture were transferred to 10-20 ml of the appropriate broth and vortexed gently until a fine suspension was produced. The initial OD600 nm of the cell suspensions was measured and adjusted to 0.2 to give a colony count of 1×10^8 cfu/ml. Final inocula were prepared by diluting the adjusted cell suspensions in appropriate broth as detailed below:
# (§3) The broths were added to wells in columns 1, 11 (negative control, broth only) and 12 (positive control).
# (§4) 100 μl of normal broth (standard assay) or broth A was added to wells in columns 2-10.
# (§5) After mixing in column 10, 100 μl was discarded. 5 μl of the appropriate solvent was added to wells in column 12, mixed and 100 μl discarded.
# (§6) Finally, 100 μl of inoculum (prepared in either normal broth or 2× broth A) was added to the wells in columns 1-10 and 12 and the plates were incubated as described above.
# E. coli = experiment: MIC/MBC of CPC or delmopinol alone; assay type: cell-based; conditions: Escherichia coli
# Protocol: as §1, §2, §3, §4, §5, §6
# P. gingivalis [1] = experiment: MIC/MBC of CPC or delmopinol alone; assay type: cell-based; conditions: Porphyromonas gingivalis
# Protocol: as §1, §2, §3, §4, §5, §6
# Prv. nigrescence = experiment: MIC/MBC of CPC or delmopinol alone; assay type: cell-based; conditions: Prevotella, compound alone
# Protocol: as §1, §2, §3, §4, §5, §6
# S. aureus [2] = experiment: MIC/MBC of CPC or delmopinol alone; assay type: cell-based; conditions: Staphylococcus aureus
# Protocol: as §1, §2, §3, §4, §5, §6
# P. gingivalis [3] = experiment: CPC and delmopinol combination (chequerboard assay), FICi/FBCi; assay type: cell-based, Porphyromonas gingivalis; conditions: CPC + delmopinol, Decapinol base (Broth A)
# Protocol: 190 μl of normal broth (standard assays) or broth A was added to wells of a 96 well plate. […] 5 μl of each dilution of delmopinol was added to the appropriate wells of the 96 wells plate. The contents of each well were mixed thoroughly and then 100 μl volume was discarded.
# Plates were then incubated as described above. […] Following incubation the plates were examined and growth/no growth recorded for every well sample (used for FBC determination).
# FBCi were calculated in the same manner but using MBC data.
# The FICi and FBCi were interpreted using the same parameters as set out above.
# S. aureus [4] = experiment: CPC in combination with ¼ MIC of delmopinol, FICi/FBCi; assay type: cell-based, Staphylococcus aureus; conditions: CPC + ¼ MIC delmopinol (not full FIC/FBC)
# E. faecalis = experiment: MIC/MBC of CPC or delmopinol alone; assay type: cell-based, Entercoccus faecalis; conditions: Enterococcus faecalis
# Protocol: as §1, §2, §3, §4, §5, §6
# [5] = read-out: Activity alone Decapinol base MBC
# [6] = read-out: Activity alone Decapinol base MIC
# [7] = read-out: Activity alone Standard MBC
# [8] = read-out: Activity alone Standard MIC
smiles,measurement,setting,value
"CCCCCCCCCCCCCCCC[n+]1ccccc1 [CPC, cetylpyridinium chloride]",MBC,C. albicans; [5],0.98 µg/mL and 2.9 µM
same,MIC,C. albicans; [6],0.49 µg/mL and 1.4 µM
same,MBC,C. albicans; [7],0.98 µg/mL and 2.9 µM
same,MIC,C. albicans; [8],0.98 µg/mL and 2.9 µM
same,MBC,E. coli; [5],62.5 µg/mL and 184 µM
same,MIC,E. coli; [6],15.6 µg/mL and 45.9 µM
same,MBC,E. coli; [7],31.2 µg/mL and 91.9 µM
same,MIC,E. coli; [8],15.6 µg/mL and 45.9 µM
same,MBC,P. gingivalis [1]; [5],0.49 µg/mL and 1.4 µM
same,MIC,P. gingivalis [1]; [6],0.49 µg/mL and 1.4 µM
same,MBC,P. gingivalis [1]; [7],0.49 µg/mL and 1.4 µM
same,MIC,P. gingivalis [1]; [8],0.49 µg/mL and 1.4 µM
same,MBC,"Prv. nigrescence; Decapinol base (Broth A), no delmopinol or sodium benzoate present, read-out: Activity alone Decapinol base MBC",0.49 µg/mL and 1.4 µM
same,MIC,"Prv. nigrescence; Decapinol base (Broth A), no delmopinol or sodium benzoate present, read-out: Activity alone Decapinol base MIC",0.25 µg/mL and 0.7 µM
same,MBC,"Prv. nigrescence; Standard broth, read-out: Activity alone Standard MBC",0.49 µg/mL and 1.4 µM
same,MIC,"Prv. nigrescence; Standard broth, read-out: Activity alone Standard MIC",0.06 µg/mL and 0.2 µM
same,MBC,S. aureus [2]; [5],1.95 µg/mL and 5.7 µM
same,MIC,S. aureus [2]; [6],0.49 µg/mL and 1.4 µM
same,MBC,S. aureus [2]; [7],7.8 µg/mL and 22.9 µM
same,MIC,S. aureus [2]; [8],3.9 µg/mL and 11.5 µM
same,Combination with delmopinol (FIC) Decapinol base FICi,P. gingivalis [3],1.5
same,Combination with delmopinol (FIC) Decapinol base FICi,S. aureus [4]; Decapinol base (Broth A),0.38 s
same,Combination with delmopinol (FIC) Standard FICi,S. aureus [4]; Standard broth,0.38 s
same,MBC,E. faecalis; [5],3.9 µg/mL and 11.5 µM
same,MIC,E. faecalis; [6],0.98 µg/mL and 2.9 µM
same,MBC,E. faecalis; [7],15.6 µg/mL and 45.9 µM
same,MIC,E. faecalis; [8],1.95 µg/mL and 5.7 µM

# — patent publication US20150010479A1, “TREATMENT OF MICROBIAL INFECTIONS” (SINCLAIR PHARMACEUTICALS LIMITED, priority 2012, published 2015)
